# Test results taken from PubChem BioAssay AID330 (DTP/NCI, 2004).
# The list shows only some results of the screen, not a fair sample: it gathers tests that were run many times, whatever their T/C, doses with no T/C, and many T/C values between a quarter and a half above the control. Further doses and runs are listed elsewhere. T/C is the treated group as % of the vehicle group. Some doses have a count of surviving animals in place of a T/C: the source files T/C as zero there, which appears to mark a toxic dose or a test without result, not a measured value. Some survivor counts are full or nearly so, which does not show that the dose was tolerated: survival well below the control is almost never listed, so the zero probably covers shortened survival too. Survivors were counted at the toxicity check, usually on the fifth day, unless a day is given; later deaths do not show. Schedules are NCI's codes, taken here to give the interval after Q, in days (D) or hours (H), and the number of doses after X. Some entries hold several experiments; their values stand side by side, smallest first. For survival time, the PubChem record calls one and a half times the control and up active, and a quarter to a half above the control has no call in these data; cut-offs in other NCI protocols can differ. Some T/C values are followed by the survivors on the day toxicity was checked, most often the fifth; without a count, all were alive then.
# Tested on: P388 leukemia ip, CD2F1 mice, survival T/C
# Assay: NCI In Vivo Anticancer Drug Screen. Data for tumor model P388 Leukemia (intraperitoneal) in CD2F1 (CDF1) mice
# Conditions: T/C endpoint: median survival time, higher T/C = longer survival
# [1] = dose: 100.0 mg/kg/injection, schedule: Q01DX009 (ip), vehicle: saline with Tween-80
# [2] = dose: 200.0 mg/kg/injection, schedule: Q01DX009 (ip), vehicle: saline with Tween-80
# [3] = dose: 100.0 mg/kg/injection, schedule: Q04DX003 (ip), vehicle: saline with Tween-80
# [4] = dose: 400.0 mg/kg/injection, schedule: Q01DX009 (ip), vehicle: saline with Tween-80
# [5] = dose: 50.0 mg/kg/injection, schedule: Q01DX005 (ip), vehicle: Klucel (hydroxypropylcellulose) (HPC)
# [6] = dose: 100.0 mg/kg/injection, schedule: Q01DX005 (ip), vehicle: Klucel (hydroxypropylcellulose) (HPC)
# [7] = dose: 200.0 mg/kg/injection, schedule: Q01DX005 (ip), vehicle: Klucel (hydroxypropylcellulose) (HPC)
# [8] = dose: 50.0 mg/kg/injection, schedule: Q01DX009 (ip), vehicle: saline with Tween-80
# [9] = dose: 400.0 mg/kg/injection, schedule: Q04DX003 (ip), vehicle: saline with Tween-80
# [10] = dose: 240.0 mg/kg/injection, schedule: Q01DX005 (ip), vehicle: saline
# [11] = dose: 100.0 mg/kg/injection, schedule: Q01DX009 (ip), vehicle: saline
# [12] = dose: 200.0 mg/kg/injection, schedule: Q01DX009 (ip), vehicle: saline
# [13] = dose: 240.0 mg/kg/injection, schedule: Q01DX005 (ip), vehicle: saline with Tween-80
# [14] = dose: 60.0 mg/kg/injection, schedule: Q01DX005 (ip), vehicle: saline with Tween-80
compound,measurement,setting,value
CN(C)CCNc1ccc(N)c2sc3ccccc3c(=O)c12,survivor count,[1],5 of 6
same,survivor count,[2],0 of 6 and 2 of 6
Cc1nc2nc(N)nc(N)c2nc1Sc1ccc(Cl)cc1,survivor count,[3],6 of 6
CN(Cc1ccccc1)C(=O)C(=O)c1c[nH]c2ccccc12,survivor count,[4],6 of 6
O=S(=O)(F)/C=C/c1ccccc1,survivor count,[2],2 of 6
CCN(CC)C(=S)n1c(=S)nc(N(CC)CC)sc1=S,survivor count,[5],2 of 6
same,survivor count,[6],0 of 6
same,survivor count,[7],0 of 6
OCC1OC(n2cnc3c(NCc4ccco4)ncnc32)C(O)C1O (configuration not stated),survivor count,[4],2 of 6
NC(=O)c1ccc(N)nc1,survivor count,"dose: 5.0 mg/kg/injection, schedule: Q01DX009 (ip), vehicle: saline with Tween-80",5 of 6
same,survivor count,"dose: 10.0 mg/kg/injection, schedule: Q01DX009 (ip), vehicle: saline with Tween-80",4 of 6
same,survivor count,"dose: 12.5 mg/kg/injection, schedule: Q01DX009 (ip), vehicle: saline with Tween-80",6 of 6
same,T/C,"dose: 12.5 mg/kg/injection, schedule: Q04DX003 (ip), vehicle: saline with Tween-80",127 % of control
same,survivor count,"dose: 20.0 mg/kg/injection, schedule: Q01DX009 (ip), vehicle: saline with Tween-80",2 of 6
same,survivor count,"dose: 25.0 mg/kg/injection, schedule: Q01DX009 (ip), vehicle: saline with Tween-80",6 of 6
same,survivor count,"dose: 25.0 mg/kg/injection, schedule: Q04DX003 (ip), vehicle: saline with Tween-80",6 of 6
same,survivor count,[8],2 of 6
same,survivor count,"dose: 50.0 mg/kg/injection, schedule: Q04DX003 (ip), vehicle: saline with Tween-80",6 of 6
same,survivor count,[1],0 of 6
same,survivor count,[3],3 of 6
same,survivor count,[2],0 of 6
same,survivor count,"dose: 200.0 mg/kg/injection, schedule: Q04DX003 (ip), vehicle: saline with Tween-80",0 of 6
Cc1cccc(C(=O)/C=C2/CCCN2C)c1,survivor count,[9],5 of 6
Cn1c(O)c(N=NC(=S)NC(=O)C23CC4CC(CC(C4)C2)C3)c2ccccc21,survivor count,"dose: 12.5 mg/kg/injection, schedule: Q01DX005 (ip), vehicle: saline with Tween-80",6 of 6
same,survivor count,"dose: 25.0 mg/kg/injection, schedule: Q01DX005 (ip), vehicle: saline with Tween-80",6 of 6
same,survivor count,"dose: 50.0 mg/kg/injection, schedule: Q01DX005 (ip), vehicle: saline with Tween-80",6 of 6
same,survivor count,"dose: 100.0 mg/kg/injection, schedule: Q01DX005 (ip), vehicle: saline with Tween-80",6 of 6
O=c1oc(-c2cccc(C[n+]3ccccc3)c2)nc2cc(Cl)ccc12,survivor count,"dose: 120.0 mg/kg/injection, schedule: Q01DX005 (ip), vehicle: saline",4 of 5
same,survivor count,[10],2 of 6
c1ccc2c(c1)Sc1ccccc1N2CCCN1CCCC1,survivor count,[11],0 of 6
same,survivor count,"dose: 100.0 mg/kg/injection, schedule: Q04DX002 (ip), vehicle: saline",2 of 6
same,survivor count,[12],0 of 6
same,survivor count,"dose: 200.0 mg/kg/injection, schedule: Q04DX002 (ip), vehicle: saline",0 of 6
same,survivor count,"dose: 400.0 mg/kg/injection, schedule: Q04DX002 (ip), vehicle: saline",0 of 6
Cc1ccc(S(=O)(=O)N/N=C\c2c(-c3ccc(Cl)cc3)nc3sccn23)cc1,survivor count,"dose: 400.0 mg/kg/injection, schedule: Q01DX001 (ip), vehicle: Klucel (hydroxypropylcellulose) (HPC)",6 of 6
FC(F)(F)C(F)(F)C(F)(F)C(F)(F)C(F)(F)C(F)(F)C[CH2][Sn]([Cl])([Cl])[CH2]CC(F)(F)C(F)(F)C(F)(F)C(F)(F)C(F)(F)C(F)(F)F,T/C,[13],125 % of control
CC1=Nc2c(C)noc2CC(c2ccccc2O)C1 (configuration not stated),survivor count,[7],1 of 6
CCCCCCCCCCCCCCCCCC[N+]1(CC)CCCCC1,survivor count,"dose: 0.09 mg/kg/injection, schedule: Q01DX009 (ip), vehicle: saline",6 of 6
same,T/C,"dose: 0.39 mg/kg/injection, schedule: Q01DX009 (ip), vehicle: saline",125 % of control [4 of 6 alive]
same,survivor count,"dose: 0.78 mg/kg/injection, schedule: Q01DX009 (ip), vehicle: saline",5 of 6
same,survivor count,"dose: 1.56 mg/kg/injection, schedule: Q01DX009 (ip), vehicle: saline",3 of 6
same,survivor count,"dose: 3.12 mg/kg/injection, schedule: Q01DX009 (ip), vehicle: saline",0 of 6
same,survivor count,"dose: 6.25 mg/kg/injection, schedule: Q01DX009 (ip), vehicle: saline",0 of 6
same,survivor count,"dose: 12.5 mg/kg/injection, schedule: Q01DX009 (ip), vehicle: saline",1 of 6
same,survivor count,"dose: 50.0 mg/kg/injection, schedule: Q01DX009 (ip), vehicle: saline",0 of 6
same,survivor count,[11],0 of 6
same,survivor count,[12],0 of 6
CC(C)NC(=O)OCc1c(COC(=O)NC(C)C)c2cccn2c2c1cnn2-c1ccccc1,survivor count,[14],6 of 6
O=C1CCCCCC2=NC12 (configuration not stated),T/C,[5],129 [5 of 6 alive] and 137 % of control
same,survivor count,[6],2 of 6
same,survivor count,[7],0 of 6
CCCCCCCCCC(=O)Oc1cccc2c1CC(C[Se]c1ccccc1)C(=O)O2 (configuration not stated),survivor count,"dose: 15.0 mg/kg/injection, schedule: Q01DX005 (ip), vehicle: saline with Tween-80",6 of 6
same,survivor count,"dose: 30.0 mg/kg/injection, schedule: Q01DX005 (ip), vehicle: saline with Tween-80",6 of 6
same,survivor count,[14],6 of 6
same,survivor count,"dose: 120.0 mg/kg/injection, schedule: Q01DX005 (ip), vehicle: saline with Tween-80",6 of 6
same,survivor count,[13],6 of 6
ClCC1CCN(Cc2ccccc2)CC1,survivor count,[9],1 of 6
COc1ccc(C[n+]2cc([O-])on2)cc1,T/C,[8],127 % of control
same,T/C,[1],127 % of control
same,survivor count,[1],"0 of 6, 4 of 6, 5 of 6"
same,survivor count,"dose: 150.0 mg/kg/injection, schedule: Q01DX009 (ip), vehicle: saline with Tween-80",2 of 6
CCC(=O)[C@]1(O)Cc2c(O)c3c(c(O)c2[C@@H](OC2CC(N)C(O)C(C)O2)C1)C(=O)c1c(OC)cccc1C3=O (some centres not stated),T/C,"dose: 25.0 mg/kg/injection, schedule: Q04DX003 (ip), vehicle: water",127 % of control
same,T/C,"dose: 50.0 mg/kg/injection, schedule: Q04DX003 (ip), vehicle: water",127 % of control
same,survivor count,"dose: 100.0 mg/kg/injection, schedule: Q04DX003 (ip), vehicle: water",0 of 3
same,survivor count,"dose: 200.0 mg/kg/injection, schedule: Q04DX003 (ip), vehicle: water",0 of 3
C=CC1OCCCO1,survivor count,[10],1 of 6
C[N+](C)(N)Cc1nc(-c2ccc(Cl)cc2)no1,survivor count,[12],0 of 6
N=C(N)c1ccc2oc(/C=C/c3cc4ccc(C(=N)N)cc4o3)cc2c1,T/C,"dose: 100.0 mg/kg/injection, schedule: Q04DX003 (ip), vehicle: suspension in saline",149 % of control
same,T/C,"dose: 200.0 mg/kg/injection, schedule: Q04DX003 (ip), vehicle: suspension in saline",147 % of control
CCCCOC(=O)c1ccc(NC(=O)Nc2ccccc2OC)cc1,survivor count,[3],6 of 6
CCOC(=O)Cc1cc2cc(=O)[nH]cc2cc1C,survivor count,"dose: 100.0 mg/kg/injection, schedule: Q01DX009 (ip), vehicle: distilled water + Tween-80",6 of 6
C=C/C=C\CN(C)Cc1ccccc1,survivor count,"dose: 200.0 mg/kg/injection, schedule: Q01DX005 (ip), vehicle: saline",0 of 5
